Laboratory results as given in article doi:10.1101/312165.
These are yes or no findings as the source states them, for the method shown. Binding seen in cells or lysates may run through a third protein. Tags and fused reporters may be left off the sequences shown.

Chains of the proteins cited; added tags and fusions are not shown. Residues count along the entry.
UniProt Q00604, residues 25-133: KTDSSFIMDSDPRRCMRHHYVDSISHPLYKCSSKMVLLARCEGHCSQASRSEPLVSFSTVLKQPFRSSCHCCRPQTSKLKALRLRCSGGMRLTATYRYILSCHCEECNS

T1: retinoschisin (human (endogenous in retina)) (UniProt O15537)
T1 sequence: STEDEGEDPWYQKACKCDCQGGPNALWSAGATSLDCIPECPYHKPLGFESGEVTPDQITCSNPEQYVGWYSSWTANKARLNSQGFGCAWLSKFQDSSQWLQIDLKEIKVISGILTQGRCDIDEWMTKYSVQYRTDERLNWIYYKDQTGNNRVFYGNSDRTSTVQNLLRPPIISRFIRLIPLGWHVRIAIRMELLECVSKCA

B1: retinoschisin (protein, UniProt O15537 24-224)
chain: STEDEGEDPWYQKACKCDCQGGPNALWSAGATSLDCIPECPYHKPLGFESGEVTPDQITCSNPEQYVGWYSSWTANKARLNSQGFGCAWLSKFQDSSQWLQIDLKEIKVISGILTQGRCDIDEWMTKYSVQYRTDERLNWIYYKDQTGNNRVFYGNSDRTSTVQNLLRPPIISRFIRLIPLGWHVRIAIRMELLECVSKCA

Columns and labels:
[1] = molecular target: T1, retinoschisin (human (endogenous in retina)); test: co-IP
[2] = molecular target: norrin (human (endogenous in retina)) (UniProt Q00604); test: co-IP

Molecule | binding [1] | binding [2]
norrin (from UniProt Q00604 25-133) | no binding | 
B1 |  | no binding
